The results in this text go back to PubChem BioAssay AID493014 (National Center for Advancing Translational Sciences (NCATS), 2011).

The assay can be described thus: qHTS Assay to Find Inhibitors of Chronic Active B-Cell Receptor Signaling. To be noted: ABC-DLBCL IkBa-CBG/CBR reporter, luminescence ratio (green luciferase fused to IkBa over red control in TMD8 lymphoma cells), 4 h. In outline: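 TMD8 human ABC-DLBCL cells with doxycycline-inducible IκBα–green luciferase fusion and unfused red luciferase, in 0.5% FBS medium; compounds up to 46 uM, 4 h at 37C. Green/red luminescence ratio, filter-overlap corrected, fitted to concentration-response curves.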

The mark [1] stands for this setting: measured here: CBR red luminescence, cell number.
Setting [2] is: measured here: IkBa-CBG green luminescence.

Some of the results follow. These are further read-outs of the screen, such as a control signal, another cell line or another target. No call is given for them. Most of these compounds were active or inconclusive in the main read-out, so they are no random draw. The note in brackets gives the kind of curve behind each potency; many fits are weak.

In the case of `C/C(Cn1nnc([N+](=O)[O-])n1)=N\NC(=O)c1ccc(Cl)c(Cl)c1`, the AC50 under setting [1] was 12.6 µM [falling, partial curve, poor fit].

With `O=C(c1cc2ncc(Br)cn2n1)N1CCN(C(=O)c2ccco2)CC1`, the AC50 under setting [1] was 9.2 µM [rising, partial curve, poor fit].

`CCCCCc1nnc(NS(C)(=O)=O)s1`: the AC50 under setting [1] was 1.84 µM [rising, partial curve].

`O=c1c2cc(N3CCOCC3)ccc2[nH]c(=S)n1Cc1ccccn1`: the AC50 under setting [1] was 1.84 µM [rising, partial curve, poor fit].

For `O=C(COc1ccc2c(c1)OCO2)Nc1cccc(F)c1`, the AC50 under setting [1] was 17.8 µM [falling, single point].

`O=C1O/C(=C/c2ccccc2)c2ccccc21`: the AC50 is 3.26 µM [rising, full curve, poor fit] under setting [1] and 23.1 µM [falling, partial curve, poor fit] under setting [2].

With `O=C(COC(=O)c1ccncc1)Nc1cc(S(=O)(=O)N2CCOCC2)ccc1Cl`, under setting [1], the AC50 is 0.731 µM [rising, full curve, poor fit].

`O=C(Cc1n[nH]c(=O)c2ccccc12)Nc1cccc(S(=O)(=O)N2CCCC2)c1`: the AC50 under setting [1] is 6.31 µM [falling, partial curve, poor fit].

Take `Cc1cc(C)cc(NC(=O)c2cc(S(=O)(=O)N3CCCC3)ccc2F)c1`: under setting [1], the AC50 is 11.2 µM [falling, partial curve, poor fit].

For the compound `O=C(CC1SC(=O)N(Cc2cccc3ccccc23)C1=O)Nc1nccs1` (stereo unspecified), the AC50 under setting [1] was 10 µM [falling, partial curve, poor fit].

On to `Cc1cc(CSc2ccccc2)ccc1NC(=O)COc1ccccc1`, for which the AC50 under setting [1] was 11.2 µM [rising, partial curve].

As for `CCOc1ncccc1C(=O)OCC(=O)c1cccc(Br)c1`, the AC50 under setting [1] was 35.5 µM [rising, single point].

Regarding `CCCCNc1ccc(C(CC(N)=O)NC(=O)c2ccccc2)cc1[N+](=O)[O-]` (stereo unspecified), the AC50 under setting [1] is 0.794 µM [rising, partial curve, poor fit].

Take `COc1cccc(-c2nnc3n2N=C(C(C)(C)C)CS3)c1`: under setting [1], the AC50 was 11.2 µM [falling, partial curve, poor fit].

As to `Cc1nc(-c2cccc(S(=O)(=O)N3CCC(C(=O)NCc4ccccc4Cl)CC3)c2)no1`, the AC50 under setting [1] was 35.5 µM [falling, single point].

For `COc1cc(CNc2ccc(N3CCCC3)cc2)cc(Cl)c1OC`, the AC50 under setting [1] is 7.94 µM [falling, partial curve, poor fit].

Take `CCC/C=N/NC(=O)c1cccc(Br)c1`: the AC50 under setting [1] is 10 µM [falling, partial curve].

On to `CCOc1ccc(OCC)c(NC(=O)CSc2nnc(C3CC3)n2CC)c1`, for which, under setting [1], the AC50 is 35.5 µM [falling, single point].

With `Cc1ccc(-c2nn(-c3cc(Cl)ccc3[N+](=O)[O-])c(=O)c3ccccc23)cc1`, under setting [1], the concentration at half-maximal activity (AC50) was 15.8 µM [rising, partial curve, poor fit].

Turning to `CCc1ccc(-c2nnn(CCC(=O)OC)n2)cc1`, under setting [1], the AC50 was 2.82 µM [falling, full curve].

Consider `O=C(Nc1cnn(Cc2ccc(F)cc2)c1)c1cnccn1`, for which the AC50 under setting [1] is 5.17 µM [rising, partial curve].

On to `NS(=O)(=O)c1ccccc1NC(=O)c1c(O)c2ccccc2[nH]c1=O`, for which the AC50 under setting [1] is 7.94 µM [falling, partial curve, poor fit].

Regarding `O=C(NN1C(=O)C2C3C=CC(O3)C2C1=O)c1cccc(O)c1` (stereo unspecified), the AC50 under setting [1] was 5.8 µM [falling, partial curve, poor fit].

Consider `COc1ccc(Br)cc1/C=C/C(=O)c1ccc(NC(C)=O)cc1`, for which, under setting [1], the AC50 is 1.3 µM [falling, full curve, poor fit].

With `COc1ccc2nc(SCC(=O)Nc3ccccc3OC)[nH]c2c1`, the AC50 under setting [1] was 3.16 µM [rising, full curve].

Turning to `Cc1cccc(/C=N/NC(=O)NC2CCCCC2)c1`, under setting [1], the AC50 is 1.64 µM [rising, partial curve, poor fit].

`CCC1CCC(c2nnc(-c3ccc(Br)cc3)o2)CC1` (stereo unspecified): the AC50 under setting [1] was 18.4 µM [rising, partial curve].

In the case of `COc1cccc(-c2nn(-c3ccccc3)cc2CN(C)Cc2c(C)nc3ccccn23)c1`, the AC50 under setting [1] is 15.8 µM [falling, partial curve, poor fit].

As to `COc1ccccc1CNC(=O)CC1Sc2ccccc2NC1=O` (stereo unspecified), the AC50 under setting [1] was 6.31 µM [falling, single point].

For the compound `Cn1nnnc1SCc1csc(C2C(C#N)=C(N)OC3=C2C(=O)CCC3)c1` (stereo unspecified), the AC50 under setting [1] was 4.47 µM [falling, full curve, poor fit].

Take `CCC1(CC)C(=O)NC(=O)NC1=NCCc1c[nH]c2ccccc12`: under setting [1], the half-maximal activity concentration (AC50) is 11.6 µM [falling, single point].

On to `O=C(N/N=C/c1cn(-c2cccs2)nc1-c1ccccc1)c1ccc(O)cc1`, for which the AC50 under setting [1] is 8.2 µM [falling, partial curve].

For the compound `CC(C)n1cnc2c(Nc3cccc(Cl)c3)nc(N(CCO)CCCO)nc21`, the AC50 under setting [1] was 7.08 µM [falling, full curve].

Take `O=C(NCCC1=CCCCC1)c1cnc2n(c1=O)CCS2`: the AC50 under setting [1] was 14.6 µM [rising, partial curve, poor fit].

For the compound `Cc1ccc2c(N)c(C(=O)c3ccccc3)sc2n1`, the AC50 under setting [1] was 22.4 µM [falling, single point].

With `O=C(NCCN1CCOCC1)c1cc(-c2cccs2)on1`, the AC50 under setting [1] was 0.184 µM [falling, full curve, poor fit].

Turning to `COc1ccccc1CC(=O)NCCCc1ccccc1`, the concentration at half-maximal activity (AC50) under setting [1] is 12.6 µM [rising, partial curve, poor fit].

`N#Cc1nc(-c2ccccc2F)oc1NCCc1ccccn1`: under setting [1], the AC50 is 3.98 µM [rising, partial curve, poor fit].

With `Cn1ccnc1SCC(=O)c1c(N)n(C)c(=O)n(C)c1=O`, the AC50 under setting [1] is 8.2 µM [falling, partial curve, poor fit].

With `Cc1cc(/C=N/NC(=O)c2c(Br)cnn2C)c(C)n1-c1cccc(Br)c1`, under setting [1], the AC50 is 29.1 µM [falling, single point].

Consider `COCCCNc1nc2c(-c3cccc(C(F)(F)F)c3)nnn2c2ccccc12`, for which, under setting [1], the AC50 was 12.6 µM [rising, partial curve].

In the case of `Cc1ccc(C(=O)ONc2ccc(N=NC(=O)c3ccccc3O)cc2)cc1`, the AC50 under setting [1] was 0.103 µM [falling, full curve].

Regarding `Brc1ccc(/C=N/Nc2ccccc2)cc1`, under setting [1], the AC50 was 2.06 µM [rising, partial curve, poor fit].

Regarding `Cn1c(N)c(C(=O)CSc2nnc(-c3c[nH]c4ccccc34)n2C2CC2)c(=O)[nH]c1=O`, the AC50 under setting [1] is 0.103 µM [rising, full curve, poor fit].

As for `O=C(COc1ccc(Br)cc1Cl)NC(=S)N1CCc2ccccc21`, the AC50 is, setting by setting: under setting [1], 23.1 µM [rising, partial curve, poor fit]; under setting [2], 20.6 µM [falling, single point].

With `CN(C(=O)COC(=O)c1ccc(Cl)cc1N)C1CCCCC1`, the AC50 under setting [1] was 6.31 µM [rising, full curve].

Consider `S=c1[nH]nc([C@@H]2C[C@H]2c2ccccc2)n1-c1ccccc1`, for which the AC50 under setting [1] was 29.1 µM [rising, single point].

As for `CCOc1ccc(NC(=O)c2sc3nc(N4CCOCC4)c4c(c3c2N)CC(C)(C)OC4)cc1`, the AC50 under setting [1] was 15.8 µM [rising, partial curve, poor fit].

In the case of `Cc1cccc(N2CCN(C(=O)c3cc4c(=O)n(C)c5ccccc5c4n3C)CC2)c1C`, the AC50 under setting [1] is 2.91 µM [rising, full curve, poor fit].

Regarding `O=C(CC(C(=O)O)c1c[nH]c2ccccc12)c1ccccc1` (stereo unspecified), the AC50 under setting [1] is 7.94 µM [falling, partial curve, poor fit].

In the case of `O=C1Nc2ccccc2C12OCCCO2`, the AC50 under setting [1] is 10 µM [rising, partial curve, poor fit].

For the compound `Cc1cc(C(=O)NN=C2CCCC2)c2ccccc2n1`, the AC50 by setting is: under setting [1], 16.4 µM [rising, single point]; under setting [2], 29.1 µM [falling, partial curve, poor fit].

Regarding `CCOC(=O)c1c(C)[nH]c(O)c1C=Nc1ccccc1`, the AC50 under setting [1] was 2.51 µM [rising, full curve].

In the case of `NS(=O)(=O)c1ccc(NC(=S)NCc2ccco2)cc1`, the AC50 under setting [1] was 4.47 µM [falling, full curve, poor fit].

As to `CC1=CC(=O)C(C(C)C)=C/C1=C(\c1cc(C(C)C)c(OP(=O)(O)O)cc1C)c1ccccc1C(=O)O`, under setting [1], the AC50 was 14.1 µM [falling, partial curve, poor fit].

Turning to `O=C(COc1ccccc1Br)NCc1ccccn1`, the AC50 under setting [1] is 0.326 µM [rising, full curve].

For `COCC(=O)Nc1nc2ccc(S(C)(=O)=O)cc2s1`, under setting [1], the AC50 is 7.08 µM [rising, partial curve, poor fit].

For `CC(C)(C)OC(=O)N1CCC[C@H]1c1nnc(SCc2ccccc2F)o1`, the AC50 under setting [1] was 3.55 µM [rising, partial curve, poor fit].

Regarding `CC(=O)Nc1ccc(S(=O)(=O)NC2=C(N3CCN(Cc4ccccc4)CC3)C(=O)c3ccccc3C2=O)cc1`, the AC50 under setting [1] is 3.26 µM [rising, single point].

Consider `O=C1C2CC=CCC2C(=O)N1Cc1nnc(-c2ccc(Cl)cc2)o1` (stereo unspecified), for which the AC50 under setting [1] is 8.91 µM [rising, partial curve, poor fit].

Turning to `O=C(CCl)Nc1cc(S(=O)(=O)N2CCCCCC2)ccc1Cl`, the concentration at half-maximal activity (AC50) under setting [2] is 23.1 µM [falling, partial curve, poor fit].

As for `Cc1c(C(=O)NCC(C)C)sc2nc(-c3ccc(F)cc3)cn12`, the AC50 under setting [1] was 1.84 µM [rising, full curve, poor fit].

As to `CN(Cc1ccc(F)cc1)S(=O)(=O)c1nnc(NC(=O)c2ccccc2)s1`, the AC50 under setting [1] is 20 µM [rising, partial curve, poor fit].

A word on the AC50: it is the concentration giving half of the maximal activity seen.
